PubChem BioAssay AID493246 | Drosophila RNAi Screening Center | 2011

- Aim: 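Genes fly cells need to grow and stay alive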 (primary screen)
- Cell system: Drosophila Kc and S2R+ cells
- Reagent: long dsRNA against Drosophila genes
- Measured: 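Raw, unnormalised count of remaining cells in each well; per-plate z-scores of cell number underlie the calls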
- Reading the numbers: Kc cell number and S2R+ cell number: higher = more cells remaining
- Rule for the call: 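Counted as a hit if cell number falls by a z-score of at least 3 within its plate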
In all, the deposit lists about 21,000 reagents; this is an unselected part of those that have a named target and a result. Of all reagents, 429 (2%) are marked active. 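Values are raw and not normalised between plates; calls rest on per-plate z-scores that were not deposited.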 A number with no mark means an inactive call. The numbers tell different reagents against one gene apart. Names joined by + are all predicted targets of the reagent. The record does not give: the amount of reagent, the time to read-out.

| Gene | reagent no. | Kc cell number, rep 1 | Kc cell number, rep 2 | S2R+ cell number, rep 1 | S2R+ cell number, rep 2 |
| --- | --- | --- | --- | --- | --- |
| Paip2 (polyA-binding protein interacting protein 2) | 1 | 1.57e6 | 1.69e6 | 1.41e6 | 1.45e6 |
| CG15597 | 1 | 1.68e6 | 1.91e6 | 1.27e6 | 1.41e6 |
| px (plexus) | 1 | 1.02e6 | 1.12e6 | 6.24e5 | 7.13e5 |
| Rab26 | 1 | 1.21e6 | 1.46e6 | 1.10e6 | 1.23e6 |
| Rab26 | 2 | 1.55e6 | 1.67e6 | 1.31e6 | 1.42e6 |
| Rab26 | 3 | 1.66e6 | 1.77e6 | 1.35e6 | 1.56e6 |
| CG13443 | 1 | 1.61e6 | 1.54e6 | 9.58e5 | 1.39e6 |
| Klp67A (Kinesin-like protein at 67A) | 1 | 1.76e6 | 1.81e6 | 9.19e5 | 1.12e6 |
| hry (hairy) | 1 | 1.02e6 | 1.17e6 | 7.36e5 | 8.04e5 |
| NimB1 (Nimrod B1) | 1 | 1.37e6 | 1.47e6 | 1.32e6 | 1.26e6 |
| Obp46a (Odorant-binding protein 46a) | 1 | 1.44e6 | 1.49e6 | 1.22e6 | 1.33e6 |
| Obp56a (Odorant-binding protein 56a) | 1 | 1.53e6 | 1.60e6 | 1.12e6 | 1.26e6 |
| Nup98-96 (Nucleoporin 98-96kD) | 1 | 1.16e6 | 1.28e6 | 7.87e5 | 9.24e5 |
| Nup98-96 (Nucleoporin 98-96kD) | 2 | 1.04e6 | 1.08e6 | 7.49e5 | 8.86e5 |
| CG34451 | 1 | 1.31e6 | 1.38e6 | 1.08e6 | 1.33e6 |
| CG34451 | 2 | 1.45e6 | 1.50e6 | 1.14e6 | 1.32e6 |
| lectin-28C | 1 | 1.54e6 | 1.63e6 | 1.22e6 | 1.32e6 |
| CG9630 | 1 | 1.49e6 | 1.60e6 | 1.18e6 | 1.21e6 |
| CG10184 | 1 | 1.57e6 | 1.69e6 | 1.25e6 | 1.33e6 |
| mus101 (mutagen-sensitive 101) | 1 | 1.79e6 | 1.54e6 | 1.14e6 | 1.24e6 |
| CG31556 (retired record) | 1 | 1.40e6 | 1.42e6 | 1.02e6 | 1.15e6 |
| Sox21b | 1 | 1.32e6 (active) | 1.30e6 | 6.50e5 | 7.10e5 |
| Sox21b | 2 | 1.45e6 (active) | 1.44e6 | 8.44e5 | 9.67e5 |
| CG33627 | 1 | 1.69e6 | 1.75e6 | 1.06e6 | 1.30e6 |
| CG7443 | 1 | 1.56e6 | 1.76e6 | 1.29e6 | 1.34e6 |
| CanA1 (Calcineurin A1) | 1 | 1.43e6 | 1.46e6 | 1.03e6 | 1.10e6 |
| babo (baboon) | 1 | 1.52e6 | 1.53e6 | 1.27e6 | 1.34e6 |
| su(r) (suppressor of rudimentary) | 1 | 5.65e5 | – | 9.14e5 | – |
| RalGPS (Ral GEF with PH domain and SH3 binding motif) | 1 | 1.41e6 | 1.41e6 | 1.21e6 | 1.26e6 |
| CG10752 | 1 | 1.07e6 | 1.25e6 | 1.22e6 | 1.06e6 |
| CG15393 (retired record) | 1 | 1.49e6 | 1.52e6 | 1.06e6 | 1.19e6 |
| Argk2 (Arginine kinase 2) | 1 | 1.52e6 | 1.76e6 | 1.29e6 | 1.38e6 |
| Vha100-1 (Vacuolar H[+] ATPase 100kD subunit 1) | 1 | 5.11e5 | – | 7.94e5 | – |
| l(2)k01209 (lethal (2) k01209) | 1 | 1.57e6 | 1.64e6 | 1.25e6 | 1.34e6 |
| CG5968 | 1 | 1.64e6 | 1.62e6 | 1.36e6 | 1.58e6 |
| CG11349 | 1 | 1.54e6 | 1.42e6 | 1.13e6 | 1.17e6 |
| mrn (marionette) | 1 | 1.59e6 | 1.55e6 | 1.35e6 | 1.33e6 |
| DIP-kappa (Dpr-interacting protein kappa) | 1 | 1.44e6 | 1.47e6 | 8.95e5 | 1.04e6 |
| DIP-kappa (Dpr-interacting protein kappa) | 2 | 1.60e6 | 1.64e6 | 1.10e6 | 1.28e6 |
| CG12104 | 1 | 1.32e6 | 1.43e6 | 1.23e6 | 1.13e6 |
| Nin (Ninein) | 1 | 1.22e6 | 1.40e6 | 5.91e5 | 5.31e5 |
| CG10055 | 1 | 1.50e6 | 1.58e6 | 1.39e6 | 1.44e6 |
| CG18132 | 1 | 1.62e6 | 1.70e6 | 1.09e6 | 1.18e6 |
| TotM (Turandot M) | 1 | 1.65e6 | 1.78e6 | 1.25e6 | 1.46e6 |
| vnd (ventral nervous system defective) | 1 | 1.29e6 | 1.72e6 | 1.13e6 | 1.24e6 |
| vnd (ventral nervous system defective) | 2 | 1.42e6 | 1.46e6 | 9.65e5 | 1.11e6 |
| CG33648 | 1 | 1.62e6 | 1.64e6 | 9.34e5 | 1.21e6 |
| CG9806 | 1 | 1.61e6 | 1.51e6 | 1.03e6 | 1.14e6 |
| snRNA:U1:95Cc + snRNA:U1:95Cb | 1 | 9.92e5 | 1.41e6 | 1.02e6 | 1.01e6 |
| Lsm10 | 1 | 1.54e6 | 1.61e6 | 1.25e6 | 1.46e6 |
| mRpS35 (mitochondrial ribosomal protein S35) | 1 | 1.42e6 | 1.42e6 | 9.70e5 | 1.21e6 |
| Dg (Dystroglycan) | 1 | 1.59e6 | 1.59e6 | 1.19e6 | 1.38e6 |
| RpS11 (Ribosomal protein S11) | 1 | 1.08e6 | 1.17e6 | 8.78e5 | 9.58e5 |
| CG31957 | 1 | 1.44e6 | 1.50e6 | 1.04e6 | 1.15e6 |
| CG9853 | 1 | 1.32e6 | 1.36e6 | 1.01e6 | 1.20e6 |
| Klp31E (Kinesin-like protein at 31E) | 1 | 1.38e6 | 1.42e6 | 1.14e6 | 1.18e6 |
| Dgp-1 | 1 | 1.53e6 | 1.54e6 | 1.11e6 | 1.22e6 |
| ASPP | 1 | 1.32e6 | 1.41e6 | 7.87e5 | 2.48e5 |
| Ziz (Zizimin) | 1 | 1.62e6 | 1.61e6 | 1.26e6 | 1.49e6 |
| Ziz (Zizimin) | 2 | 1.80e6 | 1.92e6 | 1.35e6 | 1.62e6 |

Called active, among the entries above:
| Gene | reagent no. | Kc cell number, rep 1 | Kc cell number, rep 2 | S2R+ cell number, rep 1 | S2R+ cell number, rep 2 |
| --- | --- | --- | --- | --- | --- |
| Sox21b | 1 | 1.32e6 (active) | 1.30e6 | 6.50e5 | 7.10e5 |
| Sox21b | 2 | 1.45e6 (active) | 1.44e6 | 8.44e5 | 9.67e5 |
